{"source": "the supplement of paper PMC8728848", "binders": {"B1": {"name": "Thrombomodulin Extracellular (Mus musculus), P15306 (protein)", "chain": "MLGIFFLGVLAPASLGLSALAKLQPTGSQCVEHECFALFQGPATFLDASQACQRLQGHLMTVRSSVAADVISLLLSQSSMDLGPWIGLQLPQGCDDPVHLGPLRGFQWVTGDNHTSYSRWARPNDQTAPLCGPLCVTVSTATEAAPGEPAWEEKPCETETQGFLCEFYFTASCRPLTVNTRDPEAAHISSTYNTPFGVSGADFQTLPVGSSAAVEPLGLELVCRAPPGTSEGHWAWEATGAWNCSVENGGCEYLCNRSTNEPRCLCPRDMDLQADGRSCARPVVQSCNELCEHFCVSNAEVPGSYSCMCETGYQLAADGHRCEDVDDCKQGPNPCPQLCVNTKGGFECFCYDGYELVDGECVELLDPCFGSNCEFQCQPVSPTDYRCICAPGFAPKPDEPHKCEMFCNETSCPADCDPNSPTVCECPEGFILDEGSVCTDIDECSQGECFTSECRNFPGSYECICGPDTALAGQISKDCDPIPVREDTKEEEGSGEPPVSPTPGSPTGPPSARPVHSGVLIGISIASLSLVVALLALLCHLRKKQGAARAELEYKCASSAKEVVLQHVRTDRTLQKF"}}, "experiment_in_all_cases": "glycan array binding signal (z-score within array); higher = stronger binding", "details_in_all_cases": "glycan notation: IUPAC condensed, linker removed", "key": {"[1]": {"molecular_target": "Fuc(a1-2)[Gal(a1-3)]Gal(b1-4)GlcNAc(b1-2)Man(a1-3)[Fuc(a1-2)[Gal(a1-3)]Gal(b1-4)GlcNAc(b1-2)Man(a1-6)]Man(b1-4)GlcNAc(b1-4)[Fuc(a1-6)]GlcNAc", "how_it_was_run": "(§1)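 Glycan array binding is given as a within-array Z-score, which can be read as non-binding when negative. The arrays, 3228 of them, came from the Consortium for Functional Glycomics database and were retained only where the protein sequence was available. Z-scores were averaged across arrays of the same protein sequence at different concentrations or buffers and across linkers.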"}, "[2]": {"molecular_target": "Fuc(a1-2)[Gal(a1-3)]Gal(b1-4)GlcNAc(b1-3)GalNAc", "how_it_was_run": "as §1"}, "[3]": {"molecular_target": "Fuc(a1-2)[Gal(a1-3)]Gal(b1-4)GlcNAc(b1-3)[Fuc(a1-2)[Gal(a1-3)]Gal(b1-4)GlcNAc(b1-6)]GalNAc", "how_it_was_run": "as §1"}, "[4]": {"molecular_target": "Fuc(a1-2)[Gal(a1-3)]Gal(b1-4)GlcNAc(b1-6)GalNAc", "how_it_was_run": "as §1"}, "[5]": {"molecular_target": "Fuc(a1-2)[Gal(a1-3)]Gal(b1-4)[Fuc(a1-3)]Glc", "how_it_was_run": "as §1"}, "[6]": {"molecular_target": "Fuc(a1-2)[Gal(a1-3)]Gal(b1-4)[Fuc(a1-3)]GlcNAc", "how_it_was_run": "as §1"}, "[7]": {"molecular_target": "Fuc(a1-2)[Gal(a1-3)]Gal(b1-4)[Fuc(a1-3)]GlcNAc(b1-3)GalNAc", "how_it_was_run": "as §1"}, "[8]": {"molecular_target": "Fuc(a1-2)[Gal(a1-4)]Gal(b1-4)GlcNAc", "how_it_was_run": "as §1"}, "[9]": {"molecular_target": "Fuc(a1-2)[GalNAc(a1-3)]Gal", "how_it_was_run": "as §1"}, "[10]": {"molecular_target": "Fuc(a1-2)[GalNAc(a1-3)]Gal(b1-3)GalNAc(a1-3)[Fuc(a1-2)]Gal(b1-4)GlcNAc", "how_it_was_run": "as §1"}, "[11]": {"molecular_target": "Fuc(a1-2)[GalNAc(a1-3)]Gal(b1-3)GalNAc(b1-3)Gal(a1-4)Gal(b1-4)Glc", "how_it_was_run": "as §1"}, "[12]": {"molecular_target": "Fuc(a1-2)[GalNAc(a1-3)]Gal(b1-3)GlcNAc", "how_it_was_run": "as §1"}, "[13]": {"molecular_target": "Fuc(a1-2)[GalNAc(a1-3)]Gal(b1-3)GlcNAc(b1-2)Man(a1-3)[Fuc(a1-2)[GalNAc(a1-3)]Gal(b1-3)GlcNAc(b1-2)Man(a1-6)]Man(b1-4)GlcNAc(b1-4)GlcNAc", "how_it_was_run": "as §1"}, "[14]": {"molecular_target": "Fuc(a1-2)[GalNAc(a1-3)]Gal(b1-3)GlcNAc(b1-2)Man(a1-3)[Fuc(a1-2)[GalNAc(a1-3)]Gal(b1-3)GlcNAc(b1-2)Man(a1-6)]Man(b1-4)GlcNAc(b1-4)[Fuc(a1-6)]GlcNAc", "how_it_was_run": "as §1"}, "[15]": {"molecular_target": "Fuc(a1-2)[GalNAc(a1-3)]Gal(b1-3)GlcNAc(b1-3)GalNAc", "how_it_was_run": "as §1"}, "[16]": {"molecular_target": "Fuc(a1-2)[GalNAc(a1-3)]Gal(b1-3)GlcNAc(b1-6)GalNAc", "how_it_was_run": "as §1"}, "[17]": {"molecular_target": "Fuc(a1-2)[GalNAc(a1-3)]Gal(b1-4)Glc", "how_it_was_run": "as §1"}, "[18]": {"molecular_target": "Fuc(a1-2)[GalNAc(a1-3)]Gal(b1-4)GlcNAc", "how_it_was_run": "as §1"}, "[19]": {"molecular_target": "Fuc(a1-2)[GalNAc(a1-3)]Gal(b1-4)GlcNAc(b1-2)Man", "how_it_was_run": "as §1"}, "[20]": {"molecular_target": "Fuc(a1-2)[GalNAc(a1-3)]Gal(b1-4)GlcNAc(b1-2)Man(a1-3)[Fuc(a1-2)[GalNAc(a1-3)]Gal(b1-4)GlcNAc(b1-2)Man(a1-6)]Man(b1-4)GlcNAc(b1-4)GlcNAc", "how_it_was_run": "as §1"}, "[21]": {"molecular_target": "Fuc(a1-2)[GalNAc(a1-3)]Gal(b1-4)GlcNAc(b1-2)Man(a1-3)[Fuc(a1-2)[GalNAc(a1-3)]Gal(b1-4)GlcNAc(b1-2)Man(a1-6)]Man(b1-4)GlcNAc(b1-4)[Fuc(a1-6)]GlcNAc", "how_it_was_run": "as §1"}, "[22]": {"molecular_target": "Fuc(a1-2)[GalNAc(a1-3)]Gal(b1-4)GlcNAc(b1-3)Gal(b1-4)GlcNAc", "how_it_was_run": "as §1"}, "[23]": {"molecular_target": "Fuc(a1-2)[GalNAc(a1-3)]Gal(b1-4)GlcNAc(b1-3)Gal(b1-4)GlcNAc(b1-3)Gal(b1-4)GlcNAc", "how_it_was_run": "as §1"}, "[24]": {"molecular_target": "Fuc(a1-2)[GalNAc(a1-3)]Gal(b1-4)GlcNAc(b1-3)GalNAc", "how_it_was_run": "as §1"}, "[25]": {"molecular_target": "Fuc(a1-2)[GalNAc(a1-3)]Gal(b1-4)GlcNAc(b1-3)[Fuc(a1-2)[GalNAc(a1-3)]Gal(b1-4)GlcNAc(b1-6)]GalNAc", "how_it_was_run": "as §1"}, "[26]": {"molecular_target": "Fuc(a1-2)[GalNAc(a1-3)]Gal(b1-4)GlcNAc(b1-6)GalNAc", "how_it_was_run": "as §1"}, "[27]": {"molecular_target": "Fuc(a1-2)[GalNAc(a1-3)]Gal(b1-4)[Fuc(a1-3)]GlcNAc", "how_it_was_run": "as §1"}, "[28]": {"molecular_target": "Fuc(a1-2)[GalNAc(a1-3)]Gal(b1-4)[Fuc(a1-3)]GlcNAc(b1-3)GalNAc", "how_it_was_run": "as §1"}, "[29]": {"molecular_target": "Fuc(a1-2)[GalNAc(a1-4)]Gal(b1-4)GlcNAc", "how_it_was_run": "as §1"}, "[30]": {"molecular_target": "Fuc(a1-2)[GalNAc(b1-3)]Gal", "how_it_was_run": "as §1"}}, "note": "Some of the results follow."}
{"binder": "B1", "values": [{"measurement": "glycan array binding signal (z-score)", "setting": "[1]", "result": 1.13}, {"measurement": "glycan array binding signal (z-score)", "setting": "[2]", "result": -0.46}, {"measurement": "glycan array binding signal (z-score)", "setting": "[3]", "result": 0.857}, {"measurement": "glycan array binding signal (z-score)", "setting": "[4]", "result": -0.157}, {"measurement": "glycan array binding signal (z-score)", "setting": "[5]", "result": -1.18}, {"measurement": "glycan array binding signal (z-score)", "setting": "[6]", "result": 0.13}, {"measurement": "glycan array binding signal (z-score)", "setting": "[7]", "result": -0.478}, {"measurement": "glycan array binding signal (z-score)", "setting": "[8]", "result": 0.977}, {"measurement": "glycan array binding signal (z-score)", "setting": "[9]", "result": -0.162}, {"measurement": "glycan array binding signal (z-score)", "setting": "[10]", "result": 0.147}, {"measurement": "glycan array binding signal (z-score)", "setting": "[11]", "result": 0.298}, {"measurement": "glycan array binding signal (z-score)", "setting": "[12]", "result": 1.28}, {"measurement": "glycan array binding signal (z-score)", "setting": "[13]", "result": -0.08}, {"measurement": "glycan array binding signal (z-score)", "setting": "[14]", "result": 1.19}, {"measurement": "glycan array binding signal (z-score)", "setting": "[15]", "result": -0.236}, {"measurement": "glycan array binding signal (z-score)", "setting": "[16]", "result": -0.73}, {"measurement": "glycan array binding signal (z-score)", "setting": "[17]", "result": -1.64}, {"measurement": "glycan array binding signal (z-score)", "setting": "[18]", "result": -0.749}, {"measurement": "glycan array binding signal (z-score)", "setting": "[19]", "result": 1.79}, {"measurement": "glycan array binding signal (z-score)", "setting": "[20]", "result": 1.36}, {"measurement": "glycan array binding signal (z-score)", "setting": "[21]", "result": -1.18}, {"measurement": "glycan array binding signal (z-score)", "setting": "[22]", "result": -0.54}, {"measurement": "glycan array binding signal (z-score)", "setting": "[23]", "result": 0.782}, {"measurement": "glycan array binding signal (z-score)", "setting": "[24]", "result": -0.435}, {"measurement": "glycan array binding signal (z-score)", "setting": "[25]", "result": -0.665}, {"measurement": "glycan array binding signal (z-score)", "setting": "[26]", "result": -0.211}, {"measurement": "glycan array binding signal (z-score)", "setting": "[27]", "result": -2}, {"measurement": "glycan array binding signal (z-score)", "setting": "[28]", "result": 0.285}, {"measurement": "glycan array binding signal (z-score)", "setting": "[29]", "result": -0.241}, {"measurement": "glycan array binding signal (z-score)", "setting": "[30]", "result": 0.67}]}
